According to PubChem BioAssay AID1439 (NMMLSC, 2008):
About 770 (0.35%) of roughly 220,000 compounds were called active. The shares of active, inactive and inconclusive entries below differ from those in the screen. Cut-off read from the data, not from the text of the source: active = binding response below about 49% or above about 150%; inconclusive = no clear call, values can overlap the other calls; inactive = in between.

By UniProt entry, the sequences of proteins in these tests, tags left out.
UniProt P09471, whole entry, looked up: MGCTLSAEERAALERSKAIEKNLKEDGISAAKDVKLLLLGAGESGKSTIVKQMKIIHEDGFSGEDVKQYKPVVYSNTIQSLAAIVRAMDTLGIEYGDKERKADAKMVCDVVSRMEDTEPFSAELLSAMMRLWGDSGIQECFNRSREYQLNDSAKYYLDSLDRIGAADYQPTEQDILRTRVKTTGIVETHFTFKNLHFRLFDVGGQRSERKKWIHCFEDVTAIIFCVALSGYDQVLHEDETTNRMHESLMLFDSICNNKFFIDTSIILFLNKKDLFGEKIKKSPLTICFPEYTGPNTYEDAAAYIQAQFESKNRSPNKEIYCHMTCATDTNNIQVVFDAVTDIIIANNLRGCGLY

What follows are compounds tested against Guanine nucleotide-binding protein G(o) subunit alpha (Homo sapiens) (UniProt P09471) (assay: RGS7-Galphao binding modulators, primary screen, biochemical, multiplexed bead flow cytometry (AID 1439;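 note: fluorescent Galphao held in activated GDP-AlF4 state binding bead-coupled RGS7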)). Conditions: at 10 µM, actives lie on both sides.
For `Clc1cccc(N2CCN(Cc3nnc(-c4ccccc4)o3)CC2)c1`, the binding response (% of control) was inconclusive: 90.7%.
`CC(=O)N(CCC(Cc1ccccc1)c1ccco1)Cc1ccco1` (centres undefined) was tested, and the binding response (% of control) was inconclusive: 112%.
In the case of `Cc1ccc(Oc2ccc(C(=O)NCc3ccncc3)cc2)cc1`, the binding response (% of control) is reported as inconclusive: 112%.
In the case of `O/N=C/c1ccc(OCc2ccccc2)c(Cl)c1`, the binding response (% of control) is reported as inactive: 91.6%.
In the case of `CCC(C)(C)C1CCc2c(sc(NC(=O)c3ccccc3C(=O)O)c2C#N)C1` (centres undefined), the binding response (% of control) is reported as inconclusive: 123%.
In the case of `Cc1oc2ccc(OCc3c(F)cccc3Cl)cc2c1C(=O)O`, the binding response (% of control) is reported as inconclusive: 95.3%.
`O=C1CC(CSc2ccc(Cl)cc2)=NN1` was tested, and the binding response (% of control) was inconclusive: 49.5%.
With `CN(C(=O)c1cc2nc(-c3ccco3)cc(C(F)(F)F)n2n1)C1CCCCC1` the binding response (% of control) was active: 35.1%.
`O=C(COc1ccccc1[N+](=O)[O-])N/N=C/c1ccc(O)c([N+](=O)[O-])c1` was tested, and the binding response (% of control) was inconclusive: 88.5%.
`COc1cccc(C(=O)N2CCN(C3CCN(Cc4ccccc4)CC3)CC2)c1OC` was tested, and the binding response (% of control) was inconclusive: 121%.
With `Cc1onc(-c2ccccc2)c1NC(=O)N(Cc1ccccc1)C(C)C` the binding response (% of control) was inconclusive: 96%.
In the case of `COc1cccc(C=N[C@@H](CO)[C@@H](O)c2ccc([N+](=O)[O-])cc2)c1O`, the binding response (% of control) is reported as inconclusive: 119%.
For `CCC(Sc1nc(C)cc(C)n1)C(=O)Nc1ccc(S(N)(=O)=O)cc1` (centres undefined), the binding response (% of control) was inconclusive: 115%.
`CCC(C)(CC(=O)O)CC(=O)Nc1cc(C(F)(F)F)cc(C(F)(F)F)c1` (centres undefined) was tested, and the binding response (% of control) was inconclusive: 116%.
For `COc1c2ccoc2c(OC)c2oc(=O)ccc12`, the binding response (% of control) was inconclusive: 247%.
For `CCOC(=O)Nc1ccc2c(c1)OCO2`, the binding response (% of control) was inactive: 102%.
In the case of `S=c1nc(-c2sccc2OCc2ccc(Cl)cc2Cl)[nH][nH]1`, the binding response (% of control) is reported as inconclusive: 83.7%.
In the case of `CCN1CC(CN(C)Cc2nc(-c3ccc(OC)c4ccccc34)oc2C)CC1=O` (centres undefined), the binding response (% of control) is reported as inactive: 96.1%.
In the case of `N#C/C(=N\Nc1cccc([N+](=O)[O-])c1)C(=O)c1ccc(Br)cc1`, the binding response (% of control) is reported as inconclusive: 73.9%.
`O=C(NCCc1ccccc1)c1ccccc1NC(=O)C1CCCO1` (centres undefined) was tested, and the binding response (% of control) was inconclusive: 111%.
For `CCCn1nc(NC(=O)C2CCCO2)c2cc3ccc(C)cc3nc21` (centres undefined), the binding response (% of control) was inconclusive: 72.4%.
With `CCC(C)(C)c1ccc(OCCCC[n+]2cccc(C)c2C)c(C(C)(C)CC)c1` the binding response (% of control) was inconclusive: 125%.
`CCCCOc1ccc(-c2ncc([N+](=O)[O-])cn2)cc1` was tested, and the binding response (% of control) was inconclusive: 763%.
With `CC1=NNC(=O)C1CC(=O)N/N=C/c1ccc(C)o1` (centres undefined) the binding response (% of control) was inconclusive: 86.7%.
In the case of `CSc1ncc2ncn(C3OC(CO)C(O)C3O)c2n1` (centres undefined), the binding response (% of control) is reported as inconclusive: 59.9%.
With `CCOC(=O)c1c(C)nc(C)c(C(=O)OCC)c1-c1ccc(OC)cc1` the binding response (% of control) was inconclusive: 141%.
For `COc1ccc(/C=C2\CCCc3c2nc2ccc(C)cc2c3C(=O)O)cc1O`, the binding response (% of control) was inconclusive: 291%.
For `O=C(N/N=C/C=C/c1ccccc1)c1cc(C2CC2)[nH]n1`, the binding response (% of control) was inconclusive: 92.7%.
For `CC(C)CC(=O)NC(=S)N(Cc1ccccc1)Cc1ccccc1`, the binding response (% of control) was inactive: 97.4%.
`CC(C)CCN(CC(=O)NC(C)(C)C)C(=O)C(=O)Nc1ccc2c(c1)OCCO2` was tested, and the binding response (% of control) was inconclusive: 106%.
With `Cc1nn(CCC#N)c(N)c1C1(O)C(=O)Nc2c(Cl)cc(Cl)cc21` (centres undefined) the binding response (% of control) was inconclusive: 80.5%.
`CCO/C=C1\C(=O)N(c2ccc(OCC)cc2)C(=O)c2ccccc21` was tested, and the binding response (% of control) was inconclusive: 72.1%.
For `COc1ccc2nc(COC(=O)c3cccs3)c(C(C)=O)[n+]([O-])c2c1`, the binding response (% of control) was inconclusive: 89.4%.
With `Cc1nc(-c2ccccc2)sc1C1(C)CC(c2ccc([N+](=O)[O-])cc2)=NO1` (centres undefined) the binding response (% of control) was inconclusive: 111%.
In the case of `COc1ccc(C[C@H]2CN3C(=NC[C@H]3Cc3ccccc3)N2CCNC(=O)c2ccc(C)c(Br)c2)cc1`, the binding response (% of control) is reported as inconclusive: 69.2%.
`C/C(=N\O)c1cc(Cl)ccc1O` was tested, and the binding response (% of control) was inconclusive: 87.1%.
In the case of `COc1cccc(/C=N/NC(=O)c2cnccn2)c1O`, the binding response (% of control) is reported as inconclusive: 115%.
In the case of `O=C(CN1CCCCC1)Nc1scc2c1c(=O)oc1ccccc12`, the binding response (% of control) is reported as inconclusive: 87.2%.
With `COc1ccc2c(CC(=O)OCC(=O)Nc3ccc(S(N)(=O)=O)cc3)coc2c1` the binding response (% of control) was inconclusive: 113%.
`OC1(CNCc2ccccc2)C2CC3CC(C2)CC1C3` (centres undefined) was tested, and the binding response (% of control) was inconclusive: 99.5%.
For `CCN(CC)CCN(C(=O)c1c(F)cccc1F)c1nc2cc(C)cc(C)c2s1`, the binding response (% of control) was inactive: 98.9%.
With `CC1=C/C(=N\N=C2\NC(=O)C(CC(=O)Nc3ccccc3)S2)CC(C)(C)C1` (centres undefined) the binding response (% of control) was inconclusive: 100%.
`N#CC1=C(Nc2ccccc2)SC=C(c2ccc(F)cc2)N=C1N1CCOCC1` was tested, and the binding response (% of control) was inactive: 105%.
In the case of `COc1ccc(C(=O)c2cnc[nH]2)cc1OC`, the binding response (% of control) is reported as inconclusive: 63.8%.
With `Cc1cc(O)c(-c2cc(O)c(C)cc2O)cc1O` the binding response (% of control) was inconclusive: 399%.
In the case of `O=C(CC(=O)NC1CCCCC1)N/N=C/c1ccccc1F`, the binding response (% of control) is reported as inconclusive: 115%.
In the case of `COC(=O)c1sc(-c2cccs2)cc1NC(=O)/C=C/C(=O)O`, the binding response (% of control) is reported as inconclusive: 107%.
For `O=C(O)COc1ccccc1/C=N/NC(=O)CSc1nnc(SCc2ccccc2)s1`, the binding response (% of control) was inconclusive: 104%.
In the case of `O=C(CN1C(=O)C2C3C=CC(C3)C2C1=O)Nc1nncs1` (centres undefined), the binding response (% of control) is reported as inconclusive: 92.5%.
In the case of `Cn1cnnc1SCC(=O)Nc1ccc(Cl)cn1`, the binding response (% of control) is reported as inconclusive: 96%.
In the case of `C/C(Cn1nnc([N+](=O)[O-])n1)=N\NC(=O)c1ccccc1O`, the binding response (% of control) is reported as inconclusive: 102%.
For `CCc1c(C)nc(SCC(=O)NNC(=O)Cc2ccc(OC)cc2)[nH]c1=O`, the binding response (% of control) was inconclusive: 106%.
With `O=C(COc1ccccc1[N+](=O)[O-])N(Cc1ccccc1)c1ccccn1` the binding response (% of control) was inconclusive: 99.3%.
In the case of `Cc1cccc(C)c1-n1c(C)nn(CC#N)c1=O`, the binding response (% of control) is reported as inconclusive: 107%.
For `CCOC(=O)C(=Cc1c[nH]c2ccc(S(=O)(=O)N(C)C)cc12)C(=O)OCC`, the binding response (% of control) was inconclusive: 66.3%.
With `Cc1ccc(CSc2ncnc3onc(C)c23)cc1` the binding response (% of control) was inconclusive: -215%.
With `CCNC(=O)Nc1ccc(OC)cc1OC` the binding response (% of control) was inconclusive: 101%.
With `CN(c1ccccc1)c1ccc(/C=N/N2CCOCC2)cc1` the binding response (% of control) was inactive: 103%.
In the case of `Cc1ccc(-n2cccn2)c([C@@H]2C[C@H]3CN(C)C(=O)[C@]34CCCN24)c1`, the binding response (% of control) is reported as inactive: 104%.
